## Library screening results

Chains of the proteins cited; added tags and fusions are not shown.
UniProt E9BF75, entry or part of it: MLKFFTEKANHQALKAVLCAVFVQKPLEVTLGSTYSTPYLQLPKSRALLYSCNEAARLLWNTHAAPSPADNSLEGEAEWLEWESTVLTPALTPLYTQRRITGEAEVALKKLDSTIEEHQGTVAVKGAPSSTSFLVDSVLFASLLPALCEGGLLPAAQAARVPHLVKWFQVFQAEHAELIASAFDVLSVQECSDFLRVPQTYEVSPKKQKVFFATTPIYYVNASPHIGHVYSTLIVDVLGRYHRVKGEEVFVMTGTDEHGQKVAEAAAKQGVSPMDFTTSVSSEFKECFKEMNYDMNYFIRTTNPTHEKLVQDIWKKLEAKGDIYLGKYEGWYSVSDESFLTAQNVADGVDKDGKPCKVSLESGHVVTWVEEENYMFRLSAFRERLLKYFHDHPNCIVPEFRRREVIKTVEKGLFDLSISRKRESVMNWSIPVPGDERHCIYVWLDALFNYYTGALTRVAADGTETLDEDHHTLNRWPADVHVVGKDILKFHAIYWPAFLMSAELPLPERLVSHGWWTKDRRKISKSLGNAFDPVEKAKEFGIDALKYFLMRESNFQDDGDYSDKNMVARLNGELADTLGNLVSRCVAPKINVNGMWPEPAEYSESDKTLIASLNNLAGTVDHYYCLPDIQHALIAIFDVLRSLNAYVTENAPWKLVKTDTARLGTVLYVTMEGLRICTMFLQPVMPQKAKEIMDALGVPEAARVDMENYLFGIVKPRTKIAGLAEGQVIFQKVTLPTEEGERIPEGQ

Source: ChEMBL document CHEMBL3988442, “University of Dundee, Small-Polar-MMV Screening Library” (2021).

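Primary screen of methionyl-tRNA synthetase; the read-out is not stated. Target: Methionyl-tRNA synthetase (putative), Leishmania donovani (UniProt E9BF75). The test concentration is not given. Values are per cent inhibition. Of about 68,000 compounds tested this way, about 24 (0.035%) reached 50% or more in at least one test.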

Results are percentages, as filed.
The controls that fix the scale are not given in the record; negative values are as filed.
The compounds are a random part of those screened.

* O=C(COc1ccccc1)N1C[C@@H]2COC[C@]2(COc2cccnc2)C1 : 12.92%
* COC(=O)CNC(=O)c1nc(Br)sc1C(C)C : -1.072%
* Cc1nnsc1-c1nnc2sc(C(C)C)nn12 : 6.636%
* COc1nn(C)c2c1CCCN(C(=O)c1c[nH]cn1)C2 : 3.922%
* NC(=O)c1ccc(CNCC2CCN(CCO)CC2)cc1 : 9.699%
* CS(=O)(=O)c1ccc(NC(=O)NCCC2=CCCCC2)cc1 : 10.45%
* CCN1CCN(c2ccc(F)cc2C(C)NCc2nc(C)no2)CC1 (configuration not stated) : 7.829%
* COCC(=O)N1CCC(c2nccnc2Oc2cccnc2C)CC1 : 6.643%
* Cc1noc(CNc2ccc(C(=O)N3CCCC(C)C3)cc2C)n1 (configuration not stated) : 21.94%
* CC(C(=O)Nc1ccc(N2CCOCC2)nc1)n1cncn1 (configuration not stated) : 14.44%
* CN1CCOCC2(CCCN(C(=O)c3ccc(-n4cccc4)cc3)C2)C1 (configuration not stated) : 2.667%
* CCc1oc(C(=O)N2CCC(N(CC)C(C)=O)C2)cc1CN(CC)CC (configuration not stated) : 15.93%
* CCOc1ccc(-c2ccnc(C)n2)cc1C(=O)O : 4.945%
* COc1ccc(N2CCN(Cc3noc(CC(C)C)n3)C(C)C2=O)cc1 (configuration not stated) : 14.24%
* Nc1nccc(C2CCN(c3cnccn3)C2)n1 (configuration not stated) : 14.78%
* O=c1c2sccc2nc2n1CCN(Cc1ccccc1C(F)(F)F)CC2 : 7.12%
* CC(C)CC(=O)N1CCCn2cnc(CNS(C)(=O)=O)c2C1 : 18.78%
* Cc1noc(CCCC(=O)NC(C)c2cccnc2)n1 (configuration not stated) : 18.37%
* CNC(=O)COC1COC2(CCN(c3ccc(C)nn3)CC2)C1 (configuration not stated) : 12.8%
* COc1c(F)cc(NCC(=O)NC(C)(C#N)C2CC2)cc1F (configuration not stated) : 17.54%
* NC(=O)CN1CCC(c2csc(Nc3cnccn3)n2)CC1 : 22.33%
* O=C(NCCO)C1(Cc2ccccc2-c2ccncc2)CCOCC1 : 10.97%
* Cc1ccc(-c2ncc(C(=O)N3CCCN4CCC[C@H]4C3)c(O)n2)cc1 : 12.59%
* CCN(CC)C(=O)[C@@H]1C[C@H](NC(=O)c2ccn(C(C)(C)C)c2)CN1C : 17.69%
* CC(C)c1nccc([C@H]2C[C@@H]3CCN(Cc4ccoc4)C[C@H]3O2)n1 : 11.59%
* O=C(NCc1cc(Br)cs1)Nc1cn[nH]c1 : 11.15%
* CNC(=O)CN1CCC(NC(=O)Cc2ccc3c(c2)OCCO3)CC1 : 18.67%
* Cc1cc(-c2cnn(CCNC(=O)C3CCCO3)c2C2CC2)on1 (configuration not stated) : 15.41%
* CNc1cncc(C2CCCN2C(=O)c2ccc3nc(C)[nH]c3c2)n1 (configuration not stated) : 9.647%
* CN(C)C(=O)c1cccnc1SCc1ccccc1C#N : 12.5%
* COc1c(CNCc2ccnc(N3CCCC3)c2)c(C)nn1C : 11.11%

Repeated from the top, 2 entries:

O=C(COc1ccccc1)N1C[C@@H]2COC[C@]2(COc2cccnc2)C1 read 12.92%.
COC(=O)CNC(=O)c1nc(Br)sc1C(C)C read -1.072%.